{"source": "patent US11369596B2", "about": "“Methods of treating a neurodegenerative disease in a mammal in need thereof” (Thomas Jefferson University, priority 2013, dated 2022)", "test_system": "SOD1-G93A mice", "conditions": "n=5-6", "note": "Read-outs that look alike come from different tables or passages of the source."}
{"compound": "Nc1nc2ccc(OC(F)(F)F)cc2s1", "note": "[riluzole, 6-(trifluoromethoxy)benzothiazol-2-amine]", "values": [{"measurement": "survival", "setting": "P-gp-/-::SOD1-G93A riluzole-treated mice", "result": "176.0±4.2"}, {"measurement": "survival", "setting": "SOD1-G93A riluzole-treated mice", "result": "162.0±2.51"}]}
